Reference: US20240317857A1 (AMPSOURCE BIOPHARMA SHANGHAI, published 2024)
Numbering of substitutions follows the chain as printed. No constants are given. Whether binding was seen depends on the method and setting. Some entries that bind do so weakly or less than the wild type. Each block holds one binder with its values, some of them ahead of it.

Protein sequences, listed by entry. Tags and fused reporters are not part of them. Residues count along the entry.
UniProt P07766, residues 23-207: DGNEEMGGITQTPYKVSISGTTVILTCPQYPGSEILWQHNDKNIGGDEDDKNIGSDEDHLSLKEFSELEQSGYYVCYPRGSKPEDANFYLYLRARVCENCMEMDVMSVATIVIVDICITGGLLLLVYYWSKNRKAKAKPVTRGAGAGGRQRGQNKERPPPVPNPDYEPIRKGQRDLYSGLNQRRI

Key:
[1] = target: T1, human CD3 on human T cells (human, UniProt P07766 23-207); assay: flow cytometry on human primary T cells
[2] = target: T1, human CD3 on human T cells; assay: flow cytometry on human primary T cells, goat anti-human IgG AF647 detection, MFI (AF647)
[3] = target: T1, human CD3 on human T cells; assay: flow cytometry on human primary T cells, goat anti-mouse IgG AF647 detection, MFI (AF647)

B1: humanized antibody AB614 (antibody, human IgG4 S228P, kappa, V domains shown)
VH: EVQLLESGGGLVQPGGSLKLSCAASGFTFNTYAMNWVRQAPGKGLEWVGRIRSKINNYATYYADSVKDRFTISRDDSKNTAYLQMNNLKTEDTAMYYCVRHDNFYGSTYSWFADWGQGTLVTVSS
VL: ELVVTQEPSLTVSPGGTVTLTCRSSTGVVTTSNYANWVQEKPDHLFTGLIGATNYRAPGTPARFSGSLLGGKAALTLSGVQPEDEAIYFCVLWYSNHWVFGGGTKLTVLR
notes: Humanized from AP591 CDRs
binding [1]: binds
binding [2]: binds

B3: murine monoclonal antibody AP191 (antibody, mouse IgG1, V domains shown)
VH: QVQLQQSGPELVKPGASMKMSCKASGYTFTSYYIHWVKQRPGQGLEWIGWIYPGDGSTKFNEKFRGKTSLTADKSSNTAYMFLSSLTSEDSAIYFCARDGYSLYYFEFWGHGTTLTVSS
VL: DIVMSQSPSSLAVSAGETVTMSCKSSQSLLNSRTRKTYLAWYQQKPGQSPKLLIYWASTRDSGVPDRFTGSGSGTDFTLTISSVQAEDLAVYYCVQSYTLRTFGGGTKLEIK
binding [1]: binds
binding [3]: binds

B5: humanized antibody AB611 (antibody, human IgG4 S228P, kappa, V domains shown)
VH: EVQLVQSGAEVKKPGSSVKVSCKASGYTFTNNYIHWVKEKPGQGLEWIGWIYPGDGTTKYNEKFKGKTTLASDKSTNTAYMELSSLRSEDTAIYFCTRNNNYYFDYWGQGTTVTVSS
VL: DIVMTQSPDSLAVSLGERATMNCKSSQSLFNSRTRKNYLAWYQQKPGESPKLLIYWASTRESGVPDRFSGSGSGTDFTLTISSLQAEDVAVYYCKQSFILRTFGGGTKVEIKR
notes: Humanized from AP831 CDRs
binding [1]: binds
binding [2]: binds

Second part, the binder after the results:

binding [1]: binds
binding [3]: binds
B2: murine monoclonal antibody AP591 (antibody, mouse IgG1, V domains shown)
VH: B1 VH with L5V, G15K, K67R, K78Q, N79S, T80M, A81L, N86S, S125A
VL: AVVTQESALTTSPGETVTLTCRSSTGVVTTSNYANWVQEKPDHLFTGLIGATNYRVPGVPARFSGSLIGDKAALTITGAQTEDEAIYFCVLWYSNHWVFGGGTKLTVL

binding [1]: binds
binding [3]: binds
B4: murine monoclonal antibody AP831 (antibody, mouse IgG1, V domains shown)
VH: QVQLQQSGPELVKPGTSVKMSCKASGYTFTNNYIHWVKEKPGEGLEWIGWIYPGDGTTKYNEKFKGKTTLASDKSSNTVYMFLSSLTSEDSAIYFCTRNNNYYFDYWGQGTTLTVSS
VL: B3 VL with T18K, S22N, L30F, T37N, D61E, V91L, V95K, Y98F, T99I
